We go through 11 compounds from the supplement of paper PMC9433722.

Counter-ions that a name gives are not always drawn. The list shows a part of the results. Most values come without repeats; read them as rough.

Test [1] concerns Saos-2. Put plainly: cell viability (CCK-8) relative to DMSO control (% of control); higher = less cytotoxic. To be noted: 10 µM; 48 h.
For test [2], the system named is U2OS. Described as above. The settings on record: 10 µM; 48 h.

For `CC1=C(C(=O)O)N2C(=O)[C@@H](NC(=O)[C@H](N)c3ccc(O)cc3)[C@H]2SC1` [Cefadroxil Monohydrate], the cell viability is 115 in test [1] and 55.3 in test [2].

On to `Cc1ccsc1C(=CCCN1CCC[C@@H](C(=O)O)C1)c1sccc1C` [Tiagabine·HCl], for which the cell viability in test [1] came to 109; in test [2] it was 96.6.

On to `NC(=O)N[C@@H](CCC(=O)O)C(=O)O` [Carglumic Acid], for which the cell viability in test [1] amounted to 119; in test [2], 107.

On to `Nc1nc(=O)c2c([nH]1)NCC(CNc1ccc(C(=O)N[C@@H](CCC(=O)O)C(=O)O)cc1)N2C=O` (some centres not stated) [Leucovorin Calcium Pentahydrate], for which the values for the cell viability in test [1] and in test [2] were 113 and 95.2, respectively.

Turning to `C=C(CC)C(=O)c1ccc(OCC(=O)O)c(Cl)c1Cl` [Ethacrynic Acid], the cell viability was 53.7 in test [1] and 114 in test [2].

Consider `CCCc1nc(C)c2c(=O)nc(-c3cc(S(=O)(=O)N4CCN(CC)CC4)ccc3OCC)[nH]n12` [Vardenafil], for which the cell viability came to 65.1 in test [1] and 95.7 in test [2].

As to `CCCCCCCCCCC[C@@H](C[C@@H]1OC(=O)[C@H]1CCCCCC)OC(=O)[C@H](CC(C)C)NC=O` [Orlistat], the cell viability was found to be 109 in test [1] and 106 in test [2].

In the case of `O=C(O)c1cc(=O)c2c(OCC(O)COc3cccc4oc(C(=O)O)cc(=O)c34)cccc2o1` [Cromolyn·Na (Disodium Cromoglycate)], the values for the cell viability in test [1] and in test [2] were 57.9 and 110, respectively.

For the compound `CN[C@H]1CC[C@@H](c2ccc(Cl)c(Cl)c2)c2ccccc21` [Sertraline·HCl], the figures for the cell viability in test [1] and in test [2] were 42.9 and 25.3, respectively.

Consider `O=C(O)C1(C(=O)O)CCC1.[NH2-].[NH2-].[Pt+2]` [Carboplatin], for which the cell viability came out at 65.5 in test [1] and 118 in test [2].

As for `CC(C)NCC(O)c1ccc(NS(C)(=O)=O)cc1` (configuration not stated) [Sotalol·HCl], the cell viability in test [1] was found to be 65.1; in test [2] it was 118.
